From patent US20020182655A1, “Method for identifying ligands for G protein-coupled receptors” (priority 2001, published 2002)
Some entries share one result that the patent states for a list of compounds. At least one compound was matched to its structure with a doubt left.

Sequences of proteins named here, by UniProt entry; tags and fusion partners are left off. A change or cut given only in a name is not applied to a line headed by its entry.
UniProt P46095: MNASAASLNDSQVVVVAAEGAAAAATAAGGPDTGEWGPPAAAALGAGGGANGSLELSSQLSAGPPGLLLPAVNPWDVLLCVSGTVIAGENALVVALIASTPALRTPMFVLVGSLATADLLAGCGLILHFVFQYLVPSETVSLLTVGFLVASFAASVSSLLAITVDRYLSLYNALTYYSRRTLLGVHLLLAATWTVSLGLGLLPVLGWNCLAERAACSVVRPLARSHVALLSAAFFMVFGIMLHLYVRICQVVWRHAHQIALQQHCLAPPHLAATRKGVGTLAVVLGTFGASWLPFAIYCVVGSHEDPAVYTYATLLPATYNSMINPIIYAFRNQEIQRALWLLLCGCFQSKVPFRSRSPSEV
UniProt P46089: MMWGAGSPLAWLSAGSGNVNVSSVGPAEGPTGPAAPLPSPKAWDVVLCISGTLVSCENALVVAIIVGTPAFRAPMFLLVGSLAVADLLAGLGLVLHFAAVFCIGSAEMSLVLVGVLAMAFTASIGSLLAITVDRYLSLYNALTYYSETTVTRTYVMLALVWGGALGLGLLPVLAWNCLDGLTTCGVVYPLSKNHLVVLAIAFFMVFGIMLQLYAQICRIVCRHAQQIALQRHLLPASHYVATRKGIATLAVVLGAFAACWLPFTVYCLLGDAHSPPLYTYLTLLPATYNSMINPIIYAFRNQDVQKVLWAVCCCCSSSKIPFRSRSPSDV

Tests used:
Type in all cases: cell-based
hGPR 6 = hGPR 6 (Homo sapiens, UniProt P46095); assay: Ca2+ FLIPR assay in HEK293 cells transiently transfected with hGPR 6
Experimental: (§1) Transient transfections were carried out by incubating 5×10^5 HEK293 cells or 2×10^5 CHO-K1 cells in 6-well plates at 37° C. for 24 hours. The cells were then transfected with 1 to 2 μg of a vector, pcDNA 3.1, into which a GPR 3 gene was inserted by Hind III and Xba I sites, under the control of pcDNA 3.1. It is also expected that GPR 3, 6, or 12 may be cloned under control of the eukaryotic CMV promoter or of a control plasmid without corresponding cloned insert. […]
(§2) HEK293 cells were transferred to 96-well microtiter plates 24 hours after transient transfection. […] The compounds to be analyzed, i.e., S1P, DHS1P, suramin, and compounds from the lipid library, were present as 2 mM stock solutions in DMSO (dimethyl sulfoxide). […]
(§3) The FLIPR was programmed such that 50 μl of the triple-concentrated suramin stock solution were added to the cells, leading to a final suramin concentration of 300 μM. Fluorescence was measured in 3 second intervals for the first 3 minutes and in 10 second intervals for the last 2 minutes. Ca^2+ signals of ligands were determined similarly.
(§4) The fluorescence data of the 18 to 36 second time interval were used to determine agonist activity.
(§5) Regarding the FLIPR assay, HEK293 cells were transferred to 96-well microtiter plates 24 hours after transient transfection. […] Compounds to be analyzed, e.g., S1P and DHS1 P, were added at this stage. […]

hGPR 3 = hGPR 3 (Homo sapiens, UniProt P46089); assay: Ca2+ FLIPR assay in HEK293 cells transiently transfected with hGPR 3
Experimental: as §1, §2, §3, §4, §5

hGPR 12 = target: T1, hGPR 12 (Homo sapiens, UniProt P47775); assay: Ca2+ FLIPR assay in HEK293 cells transiently transfected with hGPR 12
T1 sequence (P47775 1-334): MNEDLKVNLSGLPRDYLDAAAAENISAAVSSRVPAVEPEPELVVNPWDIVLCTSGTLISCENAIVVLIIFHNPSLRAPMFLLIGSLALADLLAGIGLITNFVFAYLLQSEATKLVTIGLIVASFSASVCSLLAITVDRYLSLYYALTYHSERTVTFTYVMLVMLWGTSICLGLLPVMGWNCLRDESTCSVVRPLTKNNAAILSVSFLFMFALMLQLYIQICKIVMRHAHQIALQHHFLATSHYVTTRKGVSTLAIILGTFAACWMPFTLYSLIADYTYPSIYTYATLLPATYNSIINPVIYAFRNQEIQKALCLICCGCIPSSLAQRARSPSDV
Experimental: as §1, §2, §3, §4, §5

Measured: EC50

CCCCCCCCCCCCCCC[C@@H](O)[C@@H](N)COP(=O)(O)O [DHS1P, dihydrosphingosine 1-phosphate]
< 100 nM: all assays above
